Consider 1 substance from PMC9496951.

The chains behind the UniProt entries cited, without tags or fusion partners. Residues count along the entry.
UniProt P04114, residues 28-4563: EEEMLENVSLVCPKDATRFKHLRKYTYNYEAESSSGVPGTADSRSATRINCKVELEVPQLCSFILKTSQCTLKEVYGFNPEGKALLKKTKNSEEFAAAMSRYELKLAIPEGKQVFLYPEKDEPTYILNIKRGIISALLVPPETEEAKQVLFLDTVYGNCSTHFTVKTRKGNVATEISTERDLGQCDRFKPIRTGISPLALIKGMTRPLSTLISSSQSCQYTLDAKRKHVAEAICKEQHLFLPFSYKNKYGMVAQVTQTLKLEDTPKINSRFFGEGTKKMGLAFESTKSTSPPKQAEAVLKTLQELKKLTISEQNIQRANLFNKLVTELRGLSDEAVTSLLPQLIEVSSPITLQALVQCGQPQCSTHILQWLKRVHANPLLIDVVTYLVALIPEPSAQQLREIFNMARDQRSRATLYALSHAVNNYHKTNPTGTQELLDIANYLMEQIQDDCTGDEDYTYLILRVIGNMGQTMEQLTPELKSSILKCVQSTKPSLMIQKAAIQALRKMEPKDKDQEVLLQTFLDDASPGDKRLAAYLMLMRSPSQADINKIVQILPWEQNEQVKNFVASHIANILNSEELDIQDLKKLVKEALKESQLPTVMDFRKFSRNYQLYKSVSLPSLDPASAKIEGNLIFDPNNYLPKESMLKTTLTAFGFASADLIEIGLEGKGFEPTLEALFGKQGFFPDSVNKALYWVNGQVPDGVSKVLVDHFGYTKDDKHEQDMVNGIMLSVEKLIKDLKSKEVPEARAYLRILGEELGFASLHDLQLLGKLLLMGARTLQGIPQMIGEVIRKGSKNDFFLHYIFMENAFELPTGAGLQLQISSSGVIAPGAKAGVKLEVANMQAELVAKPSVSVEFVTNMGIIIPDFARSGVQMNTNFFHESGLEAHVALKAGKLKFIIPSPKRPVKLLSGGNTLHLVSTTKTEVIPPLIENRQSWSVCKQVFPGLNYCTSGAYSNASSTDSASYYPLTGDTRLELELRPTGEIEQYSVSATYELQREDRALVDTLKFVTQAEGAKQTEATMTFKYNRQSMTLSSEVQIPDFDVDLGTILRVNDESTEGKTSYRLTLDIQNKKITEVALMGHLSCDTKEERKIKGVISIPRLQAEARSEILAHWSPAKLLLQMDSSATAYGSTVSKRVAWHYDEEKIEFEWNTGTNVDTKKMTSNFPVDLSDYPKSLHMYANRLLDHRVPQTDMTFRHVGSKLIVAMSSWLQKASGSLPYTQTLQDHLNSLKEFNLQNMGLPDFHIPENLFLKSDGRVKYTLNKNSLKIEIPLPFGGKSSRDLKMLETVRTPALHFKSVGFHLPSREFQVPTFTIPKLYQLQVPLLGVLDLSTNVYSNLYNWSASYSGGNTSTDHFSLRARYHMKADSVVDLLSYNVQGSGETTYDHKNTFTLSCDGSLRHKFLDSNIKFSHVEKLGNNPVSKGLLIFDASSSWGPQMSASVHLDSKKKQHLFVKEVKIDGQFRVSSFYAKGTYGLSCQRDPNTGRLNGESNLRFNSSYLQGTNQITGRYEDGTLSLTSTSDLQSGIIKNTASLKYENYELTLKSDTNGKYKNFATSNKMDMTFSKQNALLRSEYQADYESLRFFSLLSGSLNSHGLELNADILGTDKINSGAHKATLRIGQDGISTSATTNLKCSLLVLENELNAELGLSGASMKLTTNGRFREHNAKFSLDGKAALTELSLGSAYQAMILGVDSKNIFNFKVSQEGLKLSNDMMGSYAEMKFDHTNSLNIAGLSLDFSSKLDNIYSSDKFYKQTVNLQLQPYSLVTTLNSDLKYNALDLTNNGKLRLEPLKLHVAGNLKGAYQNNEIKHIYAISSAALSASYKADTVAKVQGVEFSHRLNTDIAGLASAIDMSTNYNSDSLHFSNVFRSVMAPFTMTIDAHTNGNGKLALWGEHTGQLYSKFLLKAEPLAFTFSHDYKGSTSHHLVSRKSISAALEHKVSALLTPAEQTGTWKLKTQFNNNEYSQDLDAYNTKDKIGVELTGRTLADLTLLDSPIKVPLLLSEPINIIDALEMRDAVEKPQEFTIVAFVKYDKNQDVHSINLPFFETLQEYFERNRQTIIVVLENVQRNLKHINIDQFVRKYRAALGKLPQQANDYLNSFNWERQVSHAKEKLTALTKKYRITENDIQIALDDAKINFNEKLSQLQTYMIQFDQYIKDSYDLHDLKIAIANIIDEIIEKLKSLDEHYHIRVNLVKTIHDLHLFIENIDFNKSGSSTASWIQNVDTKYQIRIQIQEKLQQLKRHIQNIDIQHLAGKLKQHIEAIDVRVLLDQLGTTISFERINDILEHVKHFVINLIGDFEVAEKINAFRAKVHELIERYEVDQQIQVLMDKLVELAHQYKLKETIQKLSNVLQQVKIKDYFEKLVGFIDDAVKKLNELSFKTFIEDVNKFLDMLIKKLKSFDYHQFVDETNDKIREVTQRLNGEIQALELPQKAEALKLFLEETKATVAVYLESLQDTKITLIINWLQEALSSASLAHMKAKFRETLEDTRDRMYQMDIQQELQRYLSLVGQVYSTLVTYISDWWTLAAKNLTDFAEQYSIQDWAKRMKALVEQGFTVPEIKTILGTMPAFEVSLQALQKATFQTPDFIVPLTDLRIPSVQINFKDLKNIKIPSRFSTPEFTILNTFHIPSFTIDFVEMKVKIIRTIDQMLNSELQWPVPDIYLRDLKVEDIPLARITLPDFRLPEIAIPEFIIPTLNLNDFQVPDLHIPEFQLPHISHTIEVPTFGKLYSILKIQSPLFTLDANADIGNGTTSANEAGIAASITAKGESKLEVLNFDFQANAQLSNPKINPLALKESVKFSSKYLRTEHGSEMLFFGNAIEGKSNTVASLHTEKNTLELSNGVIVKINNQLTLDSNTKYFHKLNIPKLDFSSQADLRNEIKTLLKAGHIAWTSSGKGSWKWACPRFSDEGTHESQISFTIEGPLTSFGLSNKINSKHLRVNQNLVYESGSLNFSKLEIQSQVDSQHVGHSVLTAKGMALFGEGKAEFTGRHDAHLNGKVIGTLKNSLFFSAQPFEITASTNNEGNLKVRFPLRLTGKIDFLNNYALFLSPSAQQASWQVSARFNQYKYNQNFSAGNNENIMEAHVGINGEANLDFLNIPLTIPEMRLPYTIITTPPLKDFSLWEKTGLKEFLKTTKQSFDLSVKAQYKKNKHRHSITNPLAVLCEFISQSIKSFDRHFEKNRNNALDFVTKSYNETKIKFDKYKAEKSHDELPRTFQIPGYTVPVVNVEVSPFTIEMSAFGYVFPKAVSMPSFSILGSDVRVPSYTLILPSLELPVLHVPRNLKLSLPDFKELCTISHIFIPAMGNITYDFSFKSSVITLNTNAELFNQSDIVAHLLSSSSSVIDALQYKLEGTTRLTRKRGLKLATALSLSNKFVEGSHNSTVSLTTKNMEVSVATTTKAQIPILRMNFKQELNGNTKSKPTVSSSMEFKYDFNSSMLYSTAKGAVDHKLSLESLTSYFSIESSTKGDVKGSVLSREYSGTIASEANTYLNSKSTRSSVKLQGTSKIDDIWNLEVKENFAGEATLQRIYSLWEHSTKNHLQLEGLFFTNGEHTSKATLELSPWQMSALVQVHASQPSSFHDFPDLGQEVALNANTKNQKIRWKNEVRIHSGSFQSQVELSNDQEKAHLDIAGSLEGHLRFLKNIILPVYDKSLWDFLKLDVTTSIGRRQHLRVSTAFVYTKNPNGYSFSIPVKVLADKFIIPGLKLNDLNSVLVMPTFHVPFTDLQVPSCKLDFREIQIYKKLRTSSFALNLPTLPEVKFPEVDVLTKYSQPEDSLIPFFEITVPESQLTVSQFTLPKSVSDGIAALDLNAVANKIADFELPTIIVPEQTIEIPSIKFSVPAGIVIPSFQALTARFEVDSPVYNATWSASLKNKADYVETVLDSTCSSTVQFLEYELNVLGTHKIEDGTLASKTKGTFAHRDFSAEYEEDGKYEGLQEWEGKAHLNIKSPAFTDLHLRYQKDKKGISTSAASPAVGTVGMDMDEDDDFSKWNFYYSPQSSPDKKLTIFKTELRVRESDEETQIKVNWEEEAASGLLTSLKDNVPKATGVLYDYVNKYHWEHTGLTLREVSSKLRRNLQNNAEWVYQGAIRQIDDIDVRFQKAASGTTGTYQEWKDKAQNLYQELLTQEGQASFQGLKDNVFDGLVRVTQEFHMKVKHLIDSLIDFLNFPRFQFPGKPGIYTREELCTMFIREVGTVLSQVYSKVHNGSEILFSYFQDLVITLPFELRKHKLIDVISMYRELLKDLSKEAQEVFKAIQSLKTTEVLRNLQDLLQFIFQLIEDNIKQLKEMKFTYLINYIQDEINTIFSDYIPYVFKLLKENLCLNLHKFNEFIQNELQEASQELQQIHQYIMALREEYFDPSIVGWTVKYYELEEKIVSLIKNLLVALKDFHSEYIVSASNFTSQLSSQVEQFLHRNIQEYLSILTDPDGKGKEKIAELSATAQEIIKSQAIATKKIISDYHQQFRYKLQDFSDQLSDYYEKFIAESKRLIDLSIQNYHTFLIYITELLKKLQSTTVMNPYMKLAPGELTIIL

These are yes or no findings as the source states them, for the method shown. Binding seen in cells or lysates may run through a third protein. A yes stands for co-enrichment or nearness to the bait. Other partners may have been found.

This assay deals with Heat shock protein (Hsp) 90 (human (endogenous in THP-1)) (UniProt P07900). The assay can be described thus: affinity purification with mass spectrometry; co-IP with anti-Hsp90 antibody from lysate of ATRA-stimulated THP-1 cells; SDS-PAGE, Coomassie; five main bands excised, trypsin digested and identified by LC-MS/MS.

As for “apoprotein B (from UniProt P04114 28-4563)”, the binding entry is “binds”.
